Where a name gives a salt, the structure may show the parent alone. The list shows a part of the results. The calls rarely recur for the same compound in another form.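 In K562 cells expressing nanoluciferase-fused kinases, luminescence was recorded at 4 h intervals between 2 and 18 h, normalized as percent of control with DMSO at 100% and a positive control at 0%. A significant (2 sigma) signal drop marks a time point as decreased. The authors' rule for a hit is not shown and takes in more than the number of time points.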
Key:
Assay in all cases: number of time points (of 5) at which kinase-Nluc abundance scored as decreased, DMSO-normalised (count); higher = more persistent destabilization
Settings in all cases: K562; 2-18 h
[1] = molecular target: CAMK2A (UniProt Q9UQM7)
[2] = molecular target: CAMK2G (UniProt Q13555)
[3] = molecular target: CDK10 (UniProt Q15131)
[4] = molecular target: CDK2 (UniProt P24941)
[5] = molecular target: CDK3 (UniProt Q00526)
[6] = molecular target: CDK5 (UniProt Q00535)
[7] = molecular target: CDK6 (UniProt Q00534)
[8] = molecular target: CHEK2 (UniProt O96017)
[9] = molecular target: CSF1R (UniProt P07333)
[10] = molecular target: CSK (UniProt P41240)
[11] = molecular target: CSNK1A1 (UniProt P48729)
[12] = molecular target: CSNK1D (UniProt P48730)
[13] = molecular target: DDR1 (UniProt Q08345)
[14] = molecular target: DYRK1B (UniProt Q9Y463)
[15] = molecular target: DYRK2 (UniProt Q92630)
[16] = molecular target: EGFR (UniProt P00533)
[17] = molecular target: EGFR_G719S (UniProt P00533)
[18] = molecular target: EGFR_G719S_T790M (UniProt P00533)
[19] = molecular target: EGFR_L718V (UniProt P00533)
[20] = molecular target: EGFR_L858R (UniProt P00533)

Chains of the proteins cited; added tags and fusions are not shown. Lines headed by an entry give the natural chain unless they say otherwise; changes in a name come on top.
UniProt Q15131: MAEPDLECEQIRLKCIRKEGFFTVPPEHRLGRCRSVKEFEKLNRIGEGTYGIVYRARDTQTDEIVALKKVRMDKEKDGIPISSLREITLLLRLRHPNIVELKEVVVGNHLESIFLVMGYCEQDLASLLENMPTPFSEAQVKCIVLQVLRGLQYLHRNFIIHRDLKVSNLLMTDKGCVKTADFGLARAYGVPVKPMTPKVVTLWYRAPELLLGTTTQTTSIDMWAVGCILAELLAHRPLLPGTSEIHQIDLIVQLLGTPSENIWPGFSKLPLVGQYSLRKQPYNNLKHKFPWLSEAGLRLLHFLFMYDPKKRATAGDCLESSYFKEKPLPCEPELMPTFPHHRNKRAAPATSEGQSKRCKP
UniProt Q00526: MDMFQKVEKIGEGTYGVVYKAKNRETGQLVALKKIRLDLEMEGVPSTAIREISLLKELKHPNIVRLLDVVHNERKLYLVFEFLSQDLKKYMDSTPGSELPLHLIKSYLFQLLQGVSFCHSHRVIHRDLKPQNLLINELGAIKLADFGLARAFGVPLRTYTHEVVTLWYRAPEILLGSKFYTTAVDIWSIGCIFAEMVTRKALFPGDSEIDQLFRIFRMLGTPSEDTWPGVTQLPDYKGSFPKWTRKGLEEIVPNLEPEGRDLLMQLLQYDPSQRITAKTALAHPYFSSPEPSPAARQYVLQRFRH
UniProt Q00535, whole entry, looked up: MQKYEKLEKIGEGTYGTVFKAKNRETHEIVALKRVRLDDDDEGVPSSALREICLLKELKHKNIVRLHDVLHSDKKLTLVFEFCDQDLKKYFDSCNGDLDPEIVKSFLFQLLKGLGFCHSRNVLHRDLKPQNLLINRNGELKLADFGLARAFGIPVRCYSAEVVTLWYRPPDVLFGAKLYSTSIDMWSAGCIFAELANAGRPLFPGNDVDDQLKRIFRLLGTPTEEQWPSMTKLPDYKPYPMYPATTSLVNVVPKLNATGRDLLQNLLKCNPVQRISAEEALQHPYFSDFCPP
UniProt Q00534, whole entry: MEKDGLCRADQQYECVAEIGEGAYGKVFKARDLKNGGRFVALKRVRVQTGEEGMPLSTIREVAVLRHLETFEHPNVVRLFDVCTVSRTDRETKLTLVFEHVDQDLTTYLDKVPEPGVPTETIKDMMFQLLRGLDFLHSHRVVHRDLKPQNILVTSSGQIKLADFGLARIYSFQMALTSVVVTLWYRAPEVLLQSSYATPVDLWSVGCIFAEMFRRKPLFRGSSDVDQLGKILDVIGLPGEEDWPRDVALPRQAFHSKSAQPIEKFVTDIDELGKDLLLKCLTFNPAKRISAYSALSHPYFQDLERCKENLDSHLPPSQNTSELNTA
UniProt O96017, whole entry: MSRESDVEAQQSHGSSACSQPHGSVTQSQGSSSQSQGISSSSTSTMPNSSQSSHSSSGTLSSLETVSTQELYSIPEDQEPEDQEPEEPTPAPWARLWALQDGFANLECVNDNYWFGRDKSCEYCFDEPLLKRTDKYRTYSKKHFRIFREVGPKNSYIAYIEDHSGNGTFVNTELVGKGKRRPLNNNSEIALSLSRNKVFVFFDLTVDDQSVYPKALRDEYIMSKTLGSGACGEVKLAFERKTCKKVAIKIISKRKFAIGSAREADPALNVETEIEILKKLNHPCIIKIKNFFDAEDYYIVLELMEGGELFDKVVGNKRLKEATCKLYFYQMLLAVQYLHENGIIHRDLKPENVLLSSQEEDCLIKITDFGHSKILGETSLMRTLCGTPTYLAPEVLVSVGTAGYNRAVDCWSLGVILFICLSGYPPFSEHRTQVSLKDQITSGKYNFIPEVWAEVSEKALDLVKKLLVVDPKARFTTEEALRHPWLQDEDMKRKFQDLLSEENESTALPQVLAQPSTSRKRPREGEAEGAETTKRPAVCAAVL
UniProt P07333, whole entry: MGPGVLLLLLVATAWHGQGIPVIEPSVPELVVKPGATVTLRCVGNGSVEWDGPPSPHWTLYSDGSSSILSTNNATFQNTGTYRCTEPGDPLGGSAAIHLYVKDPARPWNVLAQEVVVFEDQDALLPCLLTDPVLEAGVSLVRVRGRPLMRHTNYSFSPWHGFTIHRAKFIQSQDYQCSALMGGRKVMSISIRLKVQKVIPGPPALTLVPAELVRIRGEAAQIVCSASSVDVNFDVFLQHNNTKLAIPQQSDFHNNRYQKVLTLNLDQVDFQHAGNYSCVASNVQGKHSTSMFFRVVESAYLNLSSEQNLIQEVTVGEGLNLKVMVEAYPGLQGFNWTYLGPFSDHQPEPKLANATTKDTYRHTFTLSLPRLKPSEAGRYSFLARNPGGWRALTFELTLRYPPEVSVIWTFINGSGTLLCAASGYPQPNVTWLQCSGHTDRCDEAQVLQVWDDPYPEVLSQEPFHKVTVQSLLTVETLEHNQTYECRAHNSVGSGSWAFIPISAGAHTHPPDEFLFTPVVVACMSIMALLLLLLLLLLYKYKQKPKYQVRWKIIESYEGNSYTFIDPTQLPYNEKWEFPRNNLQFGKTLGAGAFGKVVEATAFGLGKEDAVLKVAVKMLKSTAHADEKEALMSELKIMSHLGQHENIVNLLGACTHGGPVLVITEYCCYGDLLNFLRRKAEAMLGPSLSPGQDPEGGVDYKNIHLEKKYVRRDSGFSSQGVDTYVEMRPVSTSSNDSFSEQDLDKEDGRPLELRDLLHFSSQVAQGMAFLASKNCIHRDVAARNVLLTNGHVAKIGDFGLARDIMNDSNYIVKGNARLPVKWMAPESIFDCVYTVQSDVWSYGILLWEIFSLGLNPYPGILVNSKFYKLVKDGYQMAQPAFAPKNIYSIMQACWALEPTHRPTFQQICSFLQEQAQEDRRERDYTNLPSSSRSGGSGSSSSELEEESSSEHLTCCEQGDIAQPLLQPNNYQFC
UniProt P41240: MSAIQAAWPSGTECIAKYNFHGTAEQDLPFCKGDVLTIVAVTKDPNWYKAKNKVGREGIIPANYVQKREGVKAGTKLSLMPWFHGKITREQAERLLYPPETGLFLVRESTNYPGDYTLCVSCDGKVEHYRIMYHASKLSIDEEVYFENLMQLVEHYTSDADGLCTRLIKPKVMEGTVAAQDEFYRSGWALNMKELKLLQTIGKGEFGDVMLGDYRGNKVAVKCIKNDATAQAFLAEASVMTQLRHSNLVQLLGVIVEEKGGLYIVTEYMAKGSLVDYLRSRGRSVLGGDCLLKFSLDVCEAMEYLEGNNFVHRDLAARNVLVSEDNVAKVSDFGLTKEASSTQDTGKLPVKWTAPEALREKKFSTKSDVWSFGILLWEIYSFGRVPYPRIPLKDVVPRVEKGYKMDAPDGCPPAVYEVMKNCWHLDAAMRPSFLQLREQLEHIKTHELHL
UniProt P48729: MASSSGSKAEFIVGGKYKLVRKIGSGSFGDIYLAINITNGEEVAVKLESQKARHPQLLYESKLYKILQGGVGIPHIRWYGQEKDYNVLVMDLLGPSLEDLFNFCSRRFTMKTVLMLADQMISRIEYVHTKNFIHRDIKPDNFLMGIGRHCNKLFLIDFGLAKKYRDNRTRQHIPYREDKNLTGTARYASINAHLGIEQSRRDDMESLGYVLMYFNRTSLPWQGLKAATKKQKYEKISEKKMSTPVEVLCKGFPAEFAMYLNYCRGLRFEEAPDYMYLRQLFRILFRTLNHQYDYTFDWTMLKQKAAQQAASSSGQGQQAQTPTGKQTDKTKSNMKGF
UniProt P48730: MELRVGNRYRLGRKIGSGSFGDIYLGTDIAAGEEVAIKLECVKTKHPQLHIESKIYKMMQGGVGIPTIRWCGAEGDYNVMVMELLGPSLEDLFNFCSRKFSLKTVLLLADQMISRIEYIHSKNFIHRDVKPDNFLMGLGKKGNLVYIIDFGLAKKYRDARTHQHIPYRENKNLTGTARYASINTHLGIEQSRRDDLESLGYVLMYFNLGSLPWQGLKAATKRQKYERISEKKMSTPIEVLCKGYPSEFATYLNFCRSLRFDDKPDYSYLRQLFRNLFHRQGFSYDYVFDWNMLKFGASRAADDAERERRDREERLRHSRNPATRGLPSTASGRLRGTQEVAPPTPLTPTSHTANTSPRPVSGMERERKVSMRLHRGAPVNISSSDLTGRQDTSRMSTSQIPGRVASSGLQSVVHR
UniProt Q08345: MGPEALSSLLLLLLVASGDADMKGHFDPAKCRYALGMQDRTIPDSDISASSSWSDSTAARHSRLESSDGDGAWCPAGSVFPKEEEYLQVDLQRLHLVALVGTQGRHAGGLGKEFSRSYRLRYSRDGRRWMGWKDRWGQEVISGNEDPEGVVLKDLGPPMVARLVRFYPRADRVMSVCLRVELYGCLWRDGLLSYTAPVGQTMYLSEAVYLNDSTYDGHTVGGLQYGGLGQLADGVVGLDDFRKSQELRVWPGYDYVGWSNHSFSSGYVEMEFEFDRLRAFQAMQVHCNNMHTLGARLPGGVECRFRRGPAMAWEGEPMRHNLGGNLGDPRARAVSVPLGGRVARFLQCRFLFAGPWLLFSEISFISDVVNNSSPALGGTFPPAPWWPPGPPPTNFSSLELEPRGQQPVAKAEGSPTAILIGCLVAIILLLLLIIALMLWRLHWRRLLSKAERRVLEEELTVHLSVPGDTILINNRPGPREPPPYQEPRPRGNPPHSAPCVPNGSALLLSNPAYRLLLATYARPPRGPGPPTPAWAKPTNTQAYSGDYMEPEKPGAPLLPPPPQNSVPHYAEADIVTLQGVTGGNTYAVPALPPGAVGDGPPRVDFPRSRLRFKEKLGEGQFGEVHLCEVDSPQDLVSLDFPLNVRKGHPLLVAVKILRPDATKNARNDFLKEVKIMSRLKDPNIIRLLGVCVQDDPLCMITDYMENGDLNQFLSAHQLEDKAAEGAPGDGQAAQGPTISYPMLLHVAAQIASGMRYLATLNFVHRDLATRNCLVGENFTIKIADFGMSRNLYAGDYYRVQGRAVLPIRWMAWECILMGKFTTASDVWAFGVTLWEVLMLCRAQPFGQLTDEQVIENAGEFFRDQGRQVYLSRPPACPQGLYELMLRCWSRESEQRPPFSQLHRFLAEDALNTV
UniProt Q9Y463, whole entry, looked up: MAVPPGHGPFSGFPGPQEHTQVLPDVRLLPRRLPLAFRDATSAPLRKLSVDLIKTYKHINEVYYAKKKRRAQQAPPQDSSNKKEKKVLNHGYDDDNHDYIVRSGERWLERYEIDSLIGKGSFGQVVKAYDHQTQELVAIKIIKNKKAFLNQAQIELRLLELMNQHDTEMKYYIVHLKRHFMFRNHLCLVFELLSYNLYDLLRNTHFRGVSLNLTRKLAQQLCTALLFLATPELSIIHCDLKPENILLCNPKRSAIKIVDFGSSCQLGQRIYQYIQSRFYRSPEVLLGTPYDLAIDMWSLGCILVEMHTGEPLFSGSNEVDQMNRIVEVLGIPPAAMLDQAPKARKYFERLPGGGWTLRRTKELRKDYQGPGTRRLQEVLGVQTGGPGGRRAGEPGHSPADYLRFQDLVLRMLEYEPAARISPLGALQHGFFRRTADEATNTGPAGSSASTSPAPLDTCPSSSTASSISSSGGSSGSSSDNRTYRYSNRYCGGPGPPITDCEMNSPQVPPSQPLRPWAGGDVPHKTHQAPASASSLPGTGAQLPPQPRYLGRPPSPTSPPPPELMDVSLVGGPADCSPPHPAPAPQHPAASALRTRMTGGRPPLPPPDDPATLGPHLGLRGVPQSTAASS
UniProt Q92630: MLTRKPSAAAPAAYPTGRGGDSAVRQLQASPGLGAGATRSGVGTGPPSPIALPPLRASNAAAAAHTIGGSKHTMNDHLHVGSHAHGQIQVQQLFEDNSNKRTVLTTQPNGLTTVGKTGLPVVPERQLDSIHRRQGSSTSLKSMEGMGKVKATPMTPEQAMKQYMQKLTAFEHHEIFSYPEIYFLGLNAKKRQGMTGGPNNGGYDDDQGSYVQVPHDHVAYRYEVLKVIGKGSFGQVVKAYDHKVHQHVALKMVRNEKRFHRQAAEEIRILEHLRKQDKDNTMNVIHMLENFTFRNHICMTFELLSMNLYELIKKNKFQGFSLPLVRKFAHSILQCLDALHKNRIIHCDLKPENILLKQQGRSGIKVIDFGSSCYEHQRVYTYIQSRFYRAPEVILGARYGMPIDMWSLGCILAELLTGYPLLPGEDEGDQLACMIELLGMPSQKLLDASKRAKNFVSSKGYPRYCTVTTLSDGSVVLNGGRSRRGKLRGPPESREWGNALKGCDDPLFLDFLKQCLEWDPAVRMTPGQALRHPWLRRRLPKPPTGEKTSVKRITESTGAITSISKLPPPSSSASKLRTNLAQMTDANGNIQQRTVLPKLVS

Measured: number of time points

COc1cc(-c2cnc(N)c(-c3ccc(NC(=O)c4cn(CC5CCOCC5)cc(-c5ccc(C)cn5)c4=O)cc3F)c2)ccc1OC[C@H]1COCCO1 [DS-1205b (free base)] (10 µM)
0: all assays above

C[C@H](CC[C@@H](O)C(C)(C)O)[C@H]1CC[C@@]2(C)[C@@H]3CC=C4[C@@H](CC[C@H](O)C4(C)C)[C@]3(C)[C@H](O)C[C@]12C [Mogrol] (10 µM)
0: all assays above

CNC[C@@H](NC(=O)c1ccc(-c2nc([C@H]3CC[C@H](O)[C@@H](F)C3)cnc2N)cc1F)c1cc(F)cc(Br)c1 [Rineterkib] (10 µM)
0: all assays above

O=C1NC(=O)C(c2ccccc2[N+](=O)[O-])=C1Nc1ccc(O)c(Cl)c1 (10 µM)
0: all assays above

Cc1nc(Nc2ncc(C(=O)Nc3c(C)cccc3Cl)s2)cc(N2CCN(C(=O)CCCCCCC(=O)N[C@H](C(=O)N3C[C@H](O)C[C@H]3C(=O)NCc3ccc(-c4scnc4C)cc3)C(C)(C)C)CC2)n1 (2.5 µM)
3: [12]
1: [1] | [5] | [14] | [17]
4: [13] | [15]
0: [4] | [6] | [7] | [18]
2: all other assays above

Cc1c(Br)c(Br)c2c3c1nc(N1CCNCC1)n3CCC2 [SEL120-34A (monohydrochloride)] (2.5 µM)
0: all assays above

O=C(CC(c1ccccc1)C(C(=O)O)C(=O)O)c1ccc(C(F)(F)F)cc1 (stereo not given) (10 µM)
0: all assays above

CC[C@@H]1CN(C(=O)NCC(F)(F)F)C[C@@H]1c1cnc2cnc3[nH]ccc3n12 [Upadacitinib] (10 µM)
0: all assays above

CNCCOc1ccccc1C(C)(C)Nc1nccn(-c2cc(C(=O)NC3CC3)ccc2C)c1=O [p38α inhibitor 2] (10 µM)
0: all assays above

COc1cc(/C=C/c2ccc(NC(=O)/C=C/c3cc(OC)c(OC)c(OC)c3)cc2)cc(OC)c1 (2.5 µM)
0: all assays above

O=c1cc(-c2ccc(O)cc2)oc2cc(O)c([C@@H]3O[C@H](CO)[C@@H](O)[C@H](O)[C@H]3O)c(O)c12 [Isovitexin] (10 µM)
0: all assays above
